# Results are given in words; binding and its absence hold for the method and conditions named. Binding seen in cells or lysates may run through a third protein. A yes stands for co-enrichment or nearness to the bait. Other partners may have been found.
# The chains behind the UniProt entries cited, without tags or fusion partners. Residues count along the entry.
# UniProt P23368, residues 19-584: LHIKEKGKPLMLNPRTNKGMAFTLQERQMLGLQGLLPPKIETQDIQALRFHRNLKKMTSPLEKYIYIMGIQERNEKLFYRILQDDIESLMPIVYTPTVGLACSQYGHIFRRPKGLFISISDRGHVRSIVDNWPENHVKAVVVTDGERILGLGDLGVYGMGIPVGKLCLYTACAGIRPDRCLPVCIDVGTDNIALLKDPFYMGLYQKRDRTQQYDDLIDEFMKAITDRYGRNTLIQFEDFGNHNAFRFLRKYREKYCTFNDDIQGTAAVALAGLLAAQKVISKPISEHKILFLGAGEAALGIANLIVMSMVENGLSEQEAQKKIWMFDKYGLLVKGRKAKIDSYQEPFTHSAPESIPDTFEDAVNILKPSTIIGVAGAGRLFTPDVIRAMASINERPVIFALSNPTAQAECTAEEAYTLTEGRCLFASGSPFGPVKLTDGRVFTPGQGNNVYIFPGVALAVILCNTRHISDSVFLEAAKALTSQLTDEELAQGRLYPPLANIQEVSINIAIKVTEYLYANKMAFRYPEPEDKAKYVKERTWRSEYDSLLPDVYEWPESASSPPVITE
# UniProt Q969H0: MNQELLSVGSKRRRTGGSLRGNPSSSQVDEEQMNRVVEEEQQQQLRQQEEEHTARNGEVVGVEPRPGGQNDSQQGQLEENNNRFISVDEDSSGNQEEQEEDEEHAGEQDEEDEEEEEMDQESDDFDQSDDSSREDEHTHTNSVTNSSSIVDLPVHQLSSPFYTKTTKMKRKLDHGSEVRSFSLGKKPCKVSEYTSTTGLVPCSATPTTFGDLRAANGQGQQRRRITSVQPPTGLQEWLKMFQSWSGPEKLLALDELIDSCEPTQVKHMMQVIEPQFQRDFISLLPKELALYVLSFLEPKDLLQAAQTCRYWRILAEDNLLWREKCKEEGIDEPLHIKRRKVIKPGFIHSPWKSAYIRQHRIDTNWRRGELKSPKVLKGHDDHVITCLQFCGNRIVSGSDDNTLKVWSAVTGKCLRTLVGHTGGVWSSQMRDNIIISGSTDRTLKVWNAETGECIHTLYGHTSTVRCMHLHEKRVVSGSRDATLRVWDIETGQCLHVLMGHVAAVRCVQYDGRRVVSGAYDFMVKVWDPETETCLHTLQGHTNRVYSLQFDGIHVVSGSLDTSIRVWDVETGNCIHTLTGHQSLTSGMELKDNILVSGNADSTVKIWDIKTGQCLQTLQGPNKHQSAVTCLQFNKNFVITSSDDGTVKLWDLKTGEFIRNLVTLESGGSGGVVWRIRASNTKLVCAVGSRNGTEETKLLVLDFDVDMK
# UniProt Q99873: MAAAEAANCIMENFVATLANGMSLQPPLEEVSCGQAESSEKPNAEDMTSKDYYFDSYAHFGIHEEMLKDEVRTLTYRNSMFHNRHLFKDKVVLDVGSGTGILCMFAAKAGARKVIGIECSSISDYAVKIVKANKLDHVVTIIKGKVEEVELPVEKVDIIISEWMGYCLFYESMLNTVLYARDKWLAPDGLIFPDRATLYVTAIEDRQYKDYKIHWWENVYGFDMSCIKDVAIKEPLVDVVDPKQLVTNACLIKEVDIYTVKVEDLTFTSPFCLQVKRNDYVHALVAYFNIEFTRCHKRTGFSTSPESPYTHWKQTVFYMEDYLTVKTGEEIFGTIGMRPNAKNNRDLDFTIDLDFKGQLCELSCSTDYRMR
# Biological target: HA-tagged ME2 (mitochondrial malic enzyme 2) (human) (UniProt P23368)
# Assay: affinity purification with mass spectrometry; HEK293T cells consistently expressing HA-ME2 lysed, IP with HA beads, SDS-PAGE, Coomassie-stained bands digested with trypsin, LC-MS/MS
row,Substance,binding
1,"FBW7, endogenous in HEK293T (from UniProt Q969H0 1-707)",binds
2,"protein arginine methyltransferase 1 (PRMT1), endogenous in HEK293T (from UniProt Q99873 1-371) (enzyme)",binds
